# Results: the supplement of paper PMC8728848
# This is one part of the list.
# B1: SRS2 (Toxoplasma gondii), O15695 (protein)
# chain: MATRASLARQKTGAACLAVLTASPSVVAAKPWKRWVGVSVILASAFAVGVSAGPPYRYEPEKFTCRPKKGILSQWVSLLYQVQHNITFACEEATPVPTTLISEEHGLMVCAENMTPEECEANPAPLSAFLPGATKEWVTGDSVLTGLKISVPESQYPANAKSFRVGCRHNTKTGNTCMLTIHVEPRDPAVERQEARCSYTENSTLPKIFVTKDSNTMTLACGPHGAPMPESYTENYCSTPDTCDEKPFTSVIPGYLSKWFFGDPKSPLGARVRIPPEQIPSSPQINYFGCTGPTEGEGPKYNCTVPVPLGGGDPSEGSRPGGGSGGGKRGGGQGGGGSLAGFDFRQGSARHSLPSRMALSASALLAMTALAY
# How the values were obtained:
# Test in all cases: glycan array binding signal (z-score within array); higher = stronger binding
# Conditions in all cases: glycan notation: IUPAC condensed, linker removed
# [1] = biological target: Neu5Ac(a2-3)Gal6S(b1-4)[Fuc(a1-3)]GlcNAc
# Outline: (§1)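 Arrays were curated from the Consortium for Functional Glycomics database, 3228 in total, and kept only where the protein sequence was available. Binding is expressed as a within-array Z-score. This score was averaged across arrays of the same protein sequence at different concentrations or buffers and across linkers, and negative values can be read as non-binding.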
# Neu5Ac(a2-3)GalNAc = biological target: Neu5Ac(a2-3)GalNAc
# Outline: as §1
# [2] = biological target: Neu5Ac(a2-3)GalNAc(b1-4)GlcNAc
# Outline: as §1
# [3] = biological target: Neu5Ac(a2-3)[GalNAc(b1-4)]Gal(b1-4)Glc
# Outline: as §1
# [4] = biological target: Neu5Ac(a2-3)[GalNAc(b1-4)]Gal(b1-4)GlcNAc
# Outline: as §1
# [5] = biological target: Neu5Ac(a2-3)[GalNAc(b1-4)]Gal(b1-4)GlcNAc(b1-3)GalNAc
# Outline: as §1
# [6] = biological target: Neu5Ac(a2-3)[Neu5Ac(a2-6)]GalNAc
# Outline: as §1
# Neu5Ac(a2-6)Gal = biological target: Neu5Ac(a2-6)Gal
# Outline: as §1
# Neu5Ac(a2-6)Gal(b1-4)Glc = biological target: Neu5Ac(a2-6)Gal(b1-4)Glc
# Outline: as §1
# [7] = biological target: Neu5Ac(a2-6)Gal(b1-4)GlcNAc
# Outline: as §1
# [8] = biological target: Neu5Ac(a2-6)Gal(b1-4)GlcNAc(b1-2)Man(a1-3)Man(b1-4)GlcNAc(b1-4)GlcNAc
# Outline: as §1
# [9] = biological target: Neu5Ac(a2-6)Gal(b1-4)GlcNAc(b1-2)Man(a1-3)[Gal(b1-4)GlcNAc(b1-2)Man(a1-6)]Man(b1-4)GlcNAc(b1-4)GlcNAc
# Outline: as §1
# [10] = biological target: Neu5Ac(a2-6)Gal(b1-4)GlcNAc(b1-2)Man(a1-3)[GlcNAc(b1-2)Man(a1-6)]Man(b1-4)GlcNAc(b1-4)GlcNAc
# Outline: as §1
# [11] = biological target: Neu5Ac(a2-6)Gal(b1-4)GlcNAc(b1-2)Man(a1-3)[GlcNAc(b1-2)Man(b1-4)GlcNAc(b1-2)Man(a1-6)]Man(b1-4)GlcNAc(b1-4)GlcNAc
# Outline: as §1
# [12] = biological target: Neu5Ac(a2-6)Gal(b1-4)GlcNAc(b1-2)Man(a1-3)[Man(a1-6)]Man(b1-4)GlcNAc(b1-4)GlcNAc
# Outline: as §1
# [13] = biological target: Neu5Ac(a2-6)Gal(b1-4)GlcNAc(b1-2)Man(a1-3)[Neu5Ac(a2-6)Gal(b1-4)GlcNAc(b1-2)Man(a1-6)]Man(b1-4)GlcNAc(b1-4)GlcNAc
# Outline: as §1
# [14] = biological target: Neu5Ac(a2-6)Gal(b1-4)GlcNAc(b1-2)Man(a1-6)Man(b1-4)GlcNAc(b1-4)GlcNAc
# Outline: as §1
# [15] = biological target: Neu5Ac(a2-6)Gal(b1-4)GlcNAc(b1-2)Man(a1-6)[Gal(b1-4)GlcNAc(b1-2)Man(a1-3)]Man(b1-4)GlcNAc(b1-4)GlcNAc
# Outline: as §1
# [16] = biological target: Neu5Ac(a2-6)Gal(b1-4)GlcNAc(b1-2)Man(a1-6)[GlcNAc(b1-2)Man(a1-3)]Man(b1-4)GlcNAc(b1-4)GlcNAc
# Outline: as §1
# [17] = biological target: Neu5Ac(a2-6)Gal(b1-4)GlcNAc(b1-2)Man(a1-6)[Man(a1-3)]Man(b1-4)GlcNAc(b1-4)GlcNAc
# Outline: as §1
# [18] = biological target: Neu5Ac(a2-6)Gal(b1-4)GlcNAc(b1-3)Gal(b1-3)GlcNAc
# Outline: as §1
# [19] = biological target: Neu5Ac(a2-6)Gal(b1-4)GlcNAc(b1-3)Gal(b1-4)GlcNAc
# Outline: as §1
# [20] = biological target: Neu5Ac(a2-6)Gal(b1-4)GlcNAc(b1-3)Gal(b1-4)GlcNAc(b1-3)Gal(b1-4)GlcNAc
# Outline: as §1
# [21] = biological target: Neu5Ac(a2-6)Gal(b1-4)GlcNAc(b1-3)Gal(b1-4)[Fuc(a1-3)]GlcNAc(b1-3)Gal(b1-4)[Fuc(a1-3)]GlcNAc
# Outline: as §1
# [22] = biological target: Neu5Ac(a2-6)Gal(b1-4)GlcNAc(b1-3)GalNAc
# Outline: as §1
binder,measurement,setting,value
B1,glycan array binding signal (z-score),[1],-0.527
same,glycan array binding signal (z-score),Neu5Ac(a2-3)GalNAc,-0.302
same,glycan array binding signal (z-score),[2],-0.567
same,glycan array binding signal (z-score),[3],0.283
same,glycan array binding signal (z-score),[4],-0.142
same,glycan array binding signal (z-score),[5],-0.633
same,glycan array binding signal (z-score),[6],-0.779
same,glycan array binding signal (z-score),Neu5Ac(a2-6)Gal,-0.764
same,glycan array binding signal (z-score),Neu5Ac(a2-6)Gal(b1-4)Glc,-0.173
same,glycan array binding signal (z-score),[7],-0.008
same,glycan array binding signal (z-score),[8],-0.634
same,glycan array binding signal (z-score),[9],0.655
same,glycan array binding signal (z-score),[10],1.19
same,glycan array binding signal (z-score),[11],-0.782
same,glycan array binding signal (z-score),[12],-0.245
same,glycan array binding signal (z-score),[13],-0.029
same,glycan array binding signal (z-score),[14],-0.221
same,glycan array binding signal (z-score),[15],-0.203
same,glycan array binding signal (z-score),[16],-0.495
same,glycan array binding signal (z-score),[17],0.39
same,glycan array binding signal (z-score),[18],-0.224
same,glycan array binding signal (z-score),[19],-1.13
same,glycan array binding signal (z-score),[20],-0.155
same,glycan array binding signal (z-score),[21],0.576
same,glycan array binding signal (z-score),[22],-0.248

# Looked up one by one from above, 2 records:
binder,measurement,setting,value
B1,glycan array binding signal (z-score),[4],-0.142
same,glycan array binding signal (z-score),[11],-0.782
